We go through one substance from PMC12221590.

Sequences of proteins named here, by UniProt entry; tags and fusion partners are left off.
UniProt Q5M9Q1: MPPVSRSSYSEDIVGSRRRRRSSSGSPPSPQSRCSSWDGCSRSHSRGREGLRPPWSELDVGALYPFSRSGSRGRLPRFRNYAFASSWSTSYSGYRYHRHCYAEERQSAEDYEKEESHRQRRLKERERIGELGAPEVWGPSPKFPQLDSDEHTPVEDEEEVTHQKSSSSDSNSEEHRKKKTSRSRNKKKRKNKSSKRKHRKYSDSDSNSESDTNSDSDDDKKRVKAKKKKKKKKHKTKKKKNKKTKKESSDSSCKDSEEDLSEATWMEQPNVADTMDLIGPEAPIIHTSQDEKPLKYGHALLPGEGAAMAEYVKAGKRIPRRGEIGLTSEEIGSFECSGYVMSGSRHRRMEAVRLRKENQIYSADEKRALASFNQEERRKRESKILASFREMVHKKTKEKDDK
UniProt P19474: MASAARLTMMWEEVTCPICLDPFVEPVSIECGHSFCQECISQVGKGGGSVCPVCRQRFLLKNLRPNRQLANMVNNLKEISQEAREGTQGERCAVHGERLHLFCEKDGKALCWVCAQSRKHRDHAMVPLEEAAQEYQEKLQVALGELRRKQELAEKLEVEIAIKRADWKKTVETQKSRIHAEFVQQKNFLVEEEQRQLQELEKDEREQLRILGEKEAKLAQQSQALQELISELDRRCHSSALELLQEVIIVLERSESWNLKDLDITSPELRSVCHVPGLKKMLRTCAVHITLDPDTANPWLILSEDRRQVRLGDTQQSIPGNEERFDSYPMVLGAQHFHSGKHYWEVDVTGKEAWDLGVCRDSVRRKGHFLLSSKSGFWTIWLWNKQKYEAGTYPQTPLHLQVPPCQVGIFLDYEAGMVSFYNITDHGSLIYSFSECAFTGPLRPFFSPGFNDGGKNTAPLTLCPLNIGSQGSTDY

The assay concerns the target GFP-tagged NF-kappa-B-activating protein-like (NKAPL) (human) (UniProt Q5M9Q1). The experiment in a line: affinity purification with mass spectrometry; co-immunoprecipitation with a GFP antibody from A549 cells, proteins identified by mass spectrometry.

No constants are given. Whether binding was seen depends on the method and setting. In cells and extracts the contact can be indirect. A yes stands for co-enrichment or nearness to the bait. Other partners may have been found.

“tripartite motif-containing 21 (TRIM21) (from UniProt P19474 1-475)”: the binding result is “binds”.
